PubChem BioAssay AID720505, Drosophila RNAi Screening Center, 2013

Assay: 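Genes needed for store-operated calcium entry in fly cells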 (primary screen)
Cell system: Drosophila S2R+ cells
Reagent: long dsRNA against Drosophila genes
Treatment: thapsigargin (2 µM) in calcium-free buffer to empty internal stores, then 2 mM calcium added back
Measured: 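Stores emptied by 2 µM thapsigargin without calcium, then 2 mM calcium re-added; fluo-4 fluorescence followed by FLIPR in 384-well plates, per-well averaged endpoint, raw; two screen passes, some wells retested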
Direction: calcium signal: higher = more calcium entry after store depletion
Active means: 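Knock-downs counted as hits when calcium entry dropped relative to STIM1 positive and Rho1 negative controls present on each plate; roughly 1500 genes called, with reductions of differing size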
Calls: active = called as lowering calcium entry; inactive = not called
The deposit covers about 20,000 reagents; shown is a random part of those with a known target gene and a result. Over the whole deposit, about 2,100 (10%) got an active call. 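Raw plate signals without normalisation; calls rest on control-based scores that were not deposited; replicate 2 separates called from uncalled poorly.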 The record does not give: the amount of reagent, the time to read-out.

lbk [DRSC07178] | calcium signal, replicate 1 = 201; calcium signal, replicate 2 = 156; outcome = inactive
CG3061 [DRSC15460] | calcium signal, replicate 1 = 126; calcium signal, replicate 2 = 142; outcome = inactive
CG42812 [DRSC15368] | calcium signal, replicate 1 = 191; calcium signal, replicate 2 = 129; outcome = inactive
CG42523 [DRSC00251] | calcium signal, replicate 1 = 86.8; calcium signal, replicate 2 = 165; outcome = inactive
Cpr76Bc [DRSC11062] | calcium signal, replicate 1 = 101; calcium signal, replicate 2 = 181; outcome = inactive
CG5937 [DRSC18392] | calcium signal, replicate 1 = 269; calcium signal, replicate 2 = 117; outcome = inactive
hpRNA:CR18854 [DRSC02702] | calcium signal, replicate 1 = 167; calcium signal, replicate 2 = 138; outcome = inactive
Taf12 [DRSC16879] | calcium signal, replicate 1 = 140; calcium signal, replicate 2 = 112; outcome = inactive
WASp [DRSC15032] | calcium signal, replicate 1 = 166; calcium signal, replicate 2 = 148; outcome = inactive
mino [DRSC14132] | calcium signal, replicate 1 = 106; calcium signal, replicate 2 = 187; outcome = inactive
CG2794 [DRSC00534] | calcium signal, replicate 1 = 108; calcium signal, replicate 2 = 139; outcome = inactive
Nnf1a [DRSC06394] | calcium signal, replicate 1 = 74.3; calcium signal, replicate 2 = 94.2; outcome = inactive

2 entries from above, arranged by “calcium signal, replicate 2”, low to high:
Taf12 [DRSC16879] | calcium signal, replicate 1 = 140; calcium signal, replicate 2 = 112; outcome = inactive
hpRNA:CR18854 [DRSC02702] | calcium signal, replicate 1 = 167; calcium signal, replicate 2 = 138; outcome = inactive
